PubChem BioAssay AID264 (DTP/NCI, 2004)
The list is a part of this screen's results and no random one: it gathers tests that were run many times, whatever their T/C, doses with no T/C, and many T/C values between a quarter and a half above the control. Further doses and runs are listed elsewhere. T/C is the treated group as % of the vehicle group. Schedule codes are those of the source, taken here to give the interval after Q, in days (D) or hours (H), and the number of doses after X. Some T/C values are negative: the treated tumours shrank. Some entries hold several experiments; the results are listed from low to high. Some T/C values are followed by the survivors on the day toxicity was checked, most often the fifth; where none is given, no animal had died by that day. Some entries give survivors of the animals treated and no T/C: the source files T/C as zero there, which appears to mark a toxic dose or a test without result, not a measured value. Counts of survivors are from the toxicity check (mostly the fifth day) where no day follows; animals may have died later.

Tested on: nude mice, LX-1 lung xenograft intrarenal, tumor weight T/C
Assay: NCI In Vivo Anticancer Drug Screen. Data for tumor model Human Lung LX-1 Xenograft (intrarenal inoculation) in NU/NU Swiss (nude) mice
Conditions: T/C endpoint: mean tumor weight change, higher T/C = larger tumour; for T/C: evaluated on day 11
Procedure, shortened: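 Compound-treated mice carrying transplanted tumors were compared with vehicle-treated controls. Tumor size was the measured end point, and the value is the treated-group measurement divided by the control-group measurement (T/C).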

[1] = dose: 800.0 mg/kg/injection, schedule: Q01DX010 (sc), vehicle: saline with Tween-80
[2] = dose: 100.0 mg/kg/injection, schedule: Q01DX010 (sc), vehicle: saline with Tween-80

Q: For CC[C@@]1(O)C[C@H](OC2CC(N(C)C)C(OC3CC(O)C(OC4CCC(=O)C(C)O4)C(C)O3)C(C)O2)c2c(cc3c(c2O)C(=O)c2c(O)cccc2C3=O)[C@H]1C(=O)OC (some centres undefined), which T/C (dose: 0.5 mg/kg/injection, schedule: Q01DX010 (ip), vehicle: water) is on record?
A: Its T/C is 54, 61, 106, 134 % of control.

Q: And the T/C (dose: 1.0 mg/kg/injection, schedule: Q01DX010 (ip), vehicle: water)?
A: The T/C was 30 [2 of 2 alive on day 11], 36 [2 of 2 alive on day 11], 39, 76, 80 % of control.

Q: What about the T/C (dose: 2.0 mg/kg/injection, schedule: Q01DX010 (ip), vehicle: water) of the same compound?
A: The T/C was 16, 27, 30, 38 [2 of 3 alive on day 11], 88 % of control.

Q: What about the survivor count (dose: 4.0 mg/kg/injection, schedule: Q01DX010 (ip), vehicle: water) of the same compound?
A: Its survivor count is 0 of 3 on day 11 and 1 of 3 on day 11.

Q: And the survivor count (dose: 4.0 mg/kg/injection, schedule: Q01DX010 (sc), vehicle: water)?
A: The survivor count was 3 of 6 on day 11.

Q: And the survivor count (dose: 6.65 mg/kg/injection, schedule: Q04DX003 (ip), vehicle: water)?
A: The survivor count was 1 of 3 on day 11.

Q: What about the survivor count (dose: 8.0 mg/kg/injection, schedule: Q01DX010 (ip), vehicle: water) of the same compound?
A: Its survivor count is 0 of 3 on day 11.

Q: And the survivor count (dose: 13.3 mg/kg/injection, schedule: Q04DX003 (ip), vehicle: water)?
A: The survivor count was 0 of 3 on day 11.

Q: Which results are given for Oc1ccccc1C=NCCC[N-]CCCN=Cc1ccccc1O.[Co]?
A: T/C (dose: 25.0 mg/kg/injection, schedule: Q01DX010 (sc), vehicle: suspension in saline): 147 % of control; survivor count (dose: 200.0 mg/kg/injection, schedule: Q01DX010 (sc), vehicle: suspension in saline): 0 of 3 on day 11

Q: Which survivor count (dose: 1200.0 mg/kg/injection, schedule: Q04DX003 (sc), vehicle: suspension in saline) does the source give for CC(=O)Oc1c(C)[nH]ccc1=O here?
A: Its survivor count is 2 of 6 on day 11.

Q: And the survivor count (dose: 2400.0 mg/kg/injection, schedule: Q04DX003 (sc), vehicle: suspension in saline)?
A: Its survivor count is 0 of 6 on day 11.

Q: With COc1ccc2nc3cc(Cl)ccc3c(NCCNCCNCCNc3c4ccc(Cl)cc4nc4ccc(OC)cc34)c2c1 as the compound, how does the survivor count [1] read?
A: Its survivor count is 1 of 3 on day 11.

Q: Which T/C (dose: 600.0 mg/kg/injection, schedule: Q04DX003 (sc), vehicle: Klucel (hydroxypropylcellulose) (HPC)) does the source give for Oc1c(Cl)cc(Cl)cc1C1N2CCCCC2C2c3cccn3-c3ccccc3N21 (centres undefined) here?
A: Its T/C is 140 % of control.

Q: How did the survivor count [2] turn out when CCOC(=O)C(CC(C)C)NC(=O)C(Cc1ccc(N(CCCl)CCCl)cc1)NC(C)=O (centres undefined) was run?
A: Its survivor count is 0 of 3 on day 11.

Q: How did the survivor count (dose: 2400.0 mg/kg/injection, schedule: Q04DX003 (sc), vehicle: saline with Tween-80) turn out when COc1cc(O)c2c(O)c3c(c4c2c1[C@]1(C4)C(C)=CCCC1(C)C)[C@H](O)[C@@]1(O)CC(=O)C(C(N)=O)=C(O)[C@@]1(O)C3=O was run?
A: Its survivor count is 3 of 6 on day 11.

Q: Which results are given for Cc1nnc2ncccn12?
A: T/C (dose: 400.0 mg/kg/injection, schedule: Q04DX003 (sc), vehicle: saline): 139 % of control; survivor count (dose: 800.0 mg/kg/injection, schedule: Q04DX003 (sc), vehicle: saline): 0 of 6 on day 11

Q: CNNCc1ccc(C(=O)NC(C)C)cc1 was tested. Which T/C (dose: 100.0 mg/kg/injection, schedule: Q01DX010 (sc), vehicle: saline) did it give?
A: Its T/C is -73, 1, 3, 6, 23 % of control.

Q: And the T/C (dose: 200.0 mg/kg/injection, schedule: Q01DX010 (sc), vehicle: saline)?
A: Its T/C is -44, -34, -9, 5, 21 % of control.

Q: And the T/C (dose: 400.0 mg/kg/injection, schedule: Q01DX010 (sc), vehicle: saline)?
A: The T/C was -86, -31 [2 of 3 alive on day 11], 2 [2 of 3 alive on day 11], 4 [2 of 3 alive on day 11], 12 % of control [2 of 3 alive on day 11].

Q: What about the survivor count (dose: 800.0 mg/kg/injection, schedule: Q01DX010 (sc), vehicle: saline) of the same compound?
A: The survivor count was 0 of 3 on day 11.

Q: What about the survivor count (dose: 1333.3 mg/kg/injection, schedule: Q04DX003 (ip), vehicle: saline) of the same compound?
A: Its survivor count is 0 of 3 on day 11.

Q: Which results are given for C=C1C(=O)C23[C@H](O)C1CC[C@H]2[C@]12COC3(O)[C@@H](O)[C@@H]1C(C)(C)CC[C@@H]2O?
A: survivor count (dose: 75.0 mg/kg/injection, schedule: Q04DX003 (sc), vehicle: Klucel (hydroxypropylcellulose) (HPC)): 0 of 6 on day 11; survivor count (dose: 150.0 mg/kg/injection, schedule: Q04DX003 (sc), vehicle: Klucel (hydroxypropylcellulose) (HPC)): 0 of 6 on day 11

Q: For O=C1c2ccccc2C(=O)c2c3c(cc(NCCNCCO)c21)N(CCO)CCN3, which survivor count (dose: 1600.0 mg/kg/injection, schedule: Q04DX003 (sc), vehicle: DMSO) is on record?
A: The survivor count was 0 of 6 on day 11.

Q: CN(N=O)C(N)=O was tested. Which survivor count (dose: 50.0 mg/kg/injection, schedule: Q01DX010 (sc), vehicle: saline with Tween-80) did it give?
A: The survivor count was 0 of 3 on day 11.

Q: What about the survivor count [2] of the same compound?
A: The survivor count was 0 of 3 on day 11.

Q: With Nc1nc(N)c2c(ccc3c2ccn3Cc2cccc([N+](=O)[O-])c2)n1 as the compound, how does the survivor count (dose: 300.0 mg/kg/injection, schedule: Q04DX003 (sc), vehicle: saline with Tween-80) read?
A: The survivor count was 2 of 5 on day 11.

Q: What does the source list for Cc1noc(N)c1N?
A: T/C (dose: 300.0 mg/kg/injection, schedule: Q04DX003 (sc), vehicle: water): 147 % of control [5 of 6 alive on day 11]; survivor count (dose: 2400.0 mg/kg/injection, schedule: Q04DX003 (sc), vehicle: water): 1 of 6 on day 11

Q: With COc1cccc2c1C(=O)c1c(O)c3c(c(O)c1C2=O)C[C@H](O)C[C@@H]3OC1CC(N)C(O)C(C)O1 (some centres undefined) as the compound, how does the survivor count (dose: 50.0 mg/kg/injection, schedule: Q01DX010 (sc), vehicle: saline) read?
A: The survivor count was 0 of 3 on day 11.

Q: Which T/C (dose: 400.0 mg/kg/injection, schedule: Q04DX003 (sc), vehicle: saline with Tween-80) does the source give for COc1cc2c[n+](C)c3c4cc5c(cc4ccc3c2cc1OC)OCO5 here?
A: Its T/C is 148 % of control.

Q: How did the T/C (dose: 0.38 mg/kg/injection, schedule: Q01DX010 (sc), vehicle: saline) turn out when Nc1ncn(C2OC(CO)C(O)C2O)c(=O)n1 (centres undefined) was run?
A: Its T/C is 142 % of control.

Q: What about the survivor count (dose: 1.5 mg/kg/injection, schedule: Q01DX010 (sc), vehicle: saline) of the same compound?
A: The survivor count was 0 of 3 on day 11.

Q: What about the survivor count (dose: 1536.0 mg/kg/injection, schedule: Q04DX003 (sc), vehicle: suspension in saline) of the same compound?
A: The survivor count was 1 of 6 on day 11.

Q: With O=C1NC2(CCCCC2)C(=O)N1CCN(CCCl)CCCl as the compound, how does the survivor count (dose: 24.0 mg/kg/injection, schedule: Q01DX010 (sc), vehicle: saline) read?
A: The survivor count was 1 of 3 on day 11.

Q: What about the survivor count (dose: 48.0 mg/kg/injection, schedule: Q01DX010 (sc), vehicle: saline) of the same compound?
A: Its survivor count is 1 of 3 on day 11.

Q: For O=C(Nc1cccc2c(OC(=O)C(Cl)Cl)c(N=Nc3ccc(S(=O)(=O)Nc4nccs4)cc3)cc(N=Nc3ccc(S(=O)(=O)Nc4nccs4)cc3)c12)C(Cl)Cl (tested in a mixture with another compound), which T/C (dose: 200.0 mg/kg/injection, schedule: Q04DX003 (sc), vehicle: saline with Tween-80) is on record?
A: The T/C was 136 % of control.

Q: For NC(=O)c1ncn(C2OC(CO)C(O)C2O)n1 (centres undefined), which survivor count (dose: 2400.0 mg/kg/injection, schedule: Q04DX003 (sc), vehicle: saline) is on record?
A: The survivor count was 0 of 6 on day 11.

Q: Which T/C (dose: 30.0 mg/kg/injection, schedule: Q04DX003 (sc), vehicle: saline) does the source give for Cc1c2ccccc2cc2cccc[n+]12 here?
A: Its T/C is 142 % of control.

Q: And the survivor count (dose: 60.0 mg/kg/injection, schedule: Q04DX003 (sc), vehicle: saline)?
A: The survivor count was 0 of 6 on day 11.

Q: What about the survivor count (dose: 120.0 mg/kg/injection, schedule: Q04DX003 (sc), vehicle: saline) of the same compound?
A: Its survivor count is 0 of 6 on day 11.

Q: What about the survivor count (dose: 240.0 mg/kg/injection, schedule: Q04DX003 (sc), vehicle: saline) of the same compound?
A: The survivor count was 0 of 6 on day 11.

Q: With C(=N/NC1=NCCN1)/c1c2ccccc2c(/C=N\NC2=NCCN2)c2ccccc12 as the compound, how does the T/C (dose: 37.5 mg/kg/injection, schedule: Q04DX003 (sc), vehicle: suspension in saline) read?
A: The T/C was 145 % of control.

Q: Which survivor count (dose: 37.5 mg/kg/injection, schedule: Q04DX003 (sc), vehicle: Klucel (hydroxypropylcellulose) (HPC)) does the source give for Cc1c2ccc3ccccc3c2c[n+]2ccccc12 here?
A: The survivor count was 3 of 6 on day 11.

Q: For C[C@@H](CN1CC(=O)NC(=O)C1)N1CC(=O)NC(=O)C1, which survivor count [2] is on record?
A: Its survivor count is 0 of 3 on day 11.

Q: What about the survivor count (dose: 200.0 mg/kg/injection, schedule: Q01DX010 (sc), vehicle: saline with Tween-80) of the same compound?
A: Its survivor count is 0 of 3 on day 11 and 1 of 3 on day 11.

Q: And the survivor count (dose: 400.0 mg/kg/injection, schedule: Q01DX010 (sc), vehicle: saline with Tween-80)?
A: The survivor count was 0 of 3 on day 11.

Q: What about the survivor count [1] of the same compound?
A: The survivor count was 0 of 2 on day 11.

Q: With CCN1/C(=C/C=C/C=C/c2sc3ccccc3[n+]2CC)Sc2ccccc21 as the compound, how does the T/C (dose: 3.0 mg/kg/injection, schedule: Q04DX003 (sc), vehicle: saline) read?
A: The T/C was 135 % of control [4 of 6 alive on day 11].

Q: And the survivor count (dose: 6.0 mg/kg/injection, schedule: Q04DX003 (sc), vehicle: saline)?
A: The survivor count was 0 of 6 on day 11.

Q: And the survivor count (dose: 12.0 mg/kg/injection, schedule: Q04DX003 (sc), vehicle: saline)?
A: The survivor count was 0 of 6 on day 11.

Q: With CC(C)CC(NC(=O)CF)C(=O)O (centres undefined) as the compound, how does the survivor count (dose: 40.0 mg/kg/injection, schedule: Q04DX003 (sc), vehicle: saline) read?
A: The survivor count was 0 of 6 on day 11.
